{"source": "PubChem BioAssay AID1259308 (NCATS, 2017)", "aim": "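Candidate targets for better recombinant protein yield in mammalian cells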 (primary screen)", "cell system": "human HEK293 embryonic kidney cells stably expressing firefly luciferase (HEK-CMV-Luc2-Hygro)", "reagent": "single siRNA against human genes, 0.8 pmol siRNA per well", "time to read-out": "72 h", "detection": "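Luciferase light (ONE-Glo) measured on one replicate plate set and viability (CellTiter-Glo) on the other, scaled to a negative control siRNA, with robust z-scores and luciferase per cell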", "scale": "total luciferase, z-score: higher = more reporter protein produced", "active means": "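An siRNA counts as active if its total luciferase robust z-score exceeds 3; genes with two or more such siRNAs out of three were retested with fresh siRNAs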", "calls": "active = raised luciferase; inactive = no rise", "note": "The whole screen tested about 59,000 reagents; this is a random part of them. About 1,510 of all reagents (2.6%) count as active. 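Calls use total luciferase alone and ignore viability, so some active siRNAs may act by altering cell number.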 Reagents against one gene are numbered here. Not all columns of the deposit are shown."}
The opening 2 entries, ahead of the listing:
{"target gene": "AP1M1", "siRNA no.": 1, "total luciferase, z-score": 1.14, "Outcome": "inactive"}
{"target gene": "AP1M1", "siRNA no.": 2, "total luciferase, z-score": -0.165, "Outcome": "inactive"}

Main list, repeating the preview:
{"target gene": "AP1M1", "siRNA no.": 1, "total luciferase, z-score": 1.14, "Outcome": "inactive"}
{"target gene": "AP1M1", "siRNA no.": 2, "total luciferase, z-score": -0.165, "Outcome": "inactive"}
{"target gene": "AP1M1", "siRNA no.": 3, "total luciferase, z-score": -0.061, "Outcome": "inactive"}
{"target gene": "ING2", "siRNA no.": 1, "total luciferase, z-score": -1.72, "Outcome": "inactive"}
{"target gene": "ING2", "siRNA no.": 2, "total luciferase, z-score": 0.354, "Outcome": "inactive"}
{"target gene": "ING2", "siRNA no.": 3, "total luciferase, z-score": -1.4, "Outcome": "inactive"}
{"target gene": "AIG1", "siRNA no.": 1, "total luciferase, z-score": 0.638, "Outcome": "inactive"}
{"target gene": "AIG1", "siRNA no.": 2, "total luciferase, z-score": -0.0809, "Outcome": "inactive"}
{"target gene": "AIG1", "siRNA no.": 3, "total luciferase, z-score": 1.84, "Outcome": "inactive"}
{"target gene": "AIFM2", "siRNA no.": 1, "total luciferase, z-score": 0.693, "Outcome": "inactive"}
{"target gene": "AIFM2", "siRNA no.": 2, "total luciferase, z-score": -0.606, "Outcome": "inactive"}
{"target gene": "AIFM2", "siRNA no.": 3, "total luciferase, z-score": -0.14, "Outcome": "inactive"}
